Results from the supplement of paper PMC4604168 (melanoma cell lines).
The other results are listed elsewhere or left out. Single values are uncertain, as repeats are few or missing.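 Imaging used 1,536-well plates; nuclei positive for cleaved PARP by antibody were divided by total DNA-stained nuclei to yield the apoptosis fraction. Doses for screening kept most cells viable, and cell lines differ markedly in resting and induced cleaved-PARP levels.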

How the values were obtained:
Experiment in all cases: cleaved PARP positive nuclei fraction relative to DMSO control; melanoma cells; higher = more apoptosis
Conditions in all cases: library dose: low library concentration; 72 h
MZ2-MEL = test system: MZ2-MEL
MeWo = test system: MeWo
RPMI7951 = test system: RPMI7951
RVH-421 = test system: RVH-421
SkMel28 = test system: SkMel28
SkMel2 = test system: SkMel2
SkMel30 = test system: SkMel30
SkMel5 = test system: SkMel5
UACC257 = test system: UACC257
UACC62 = test system: UACC62

| Compound | cleaved PARP positive nuclei fraction (MZ2-MEL) | cleaved PARP positive nuclei fraction (MeWo) | cleaved PARP positive nuclei fraction (RPMI7951) | cleaved PARP positive nuclei fraction (RVH-421) | cleaved PARP positive nuclei fraction (SkMel28) | cleaved PARP positive nuclei fraction (SkMel2) | cleaved PARP positive nuclei fraction (SkMel30) | cleaved PARP positive nuclei fraction (SkMel5) | cleaved PARP positive nuclei fraction (UACC257) | cleaved PARP positive nuclei fraction (UACC62) |
| --- | --- | --- | --- | --- | --- | --- | --- | --- | --- | --- |
| Cn1cc(C2=C(c3cn(C4CCN(Cc5ccccn5)CC4)c4ccccc34)C(=O)NC2=O)c2ccccc21 [Enzastaurin] + CN(NC(=O)CC(=O)NN(C)C(=S)c1ccccc1)C(=S)c1ccccc1 [STA4783] (first compound 0.8 µM, partner dose 0.006 µM) | 97.2% | 152% | 156% | 81.2% | 54.4% | 26.3% | 58.2% | 129% | 42.2% | 133% |
| C[As](C)SC[C@H](NC(=O)CC[C@H](N)C(=O)O)C(=O)NCC(=O)O [Darinaparsin] + O=C(Nc1cccc(Cl)c1)Nc1ncc(CCNc2ncnc3ccsc23)s1 [SNS314] (first compound 0.4 µM, partner dose 0.0008 µM) | 73.3% | 478% | 51.6% | 47.4% | 88.9% | 84.9% | 89.2% | 45.5% | 75.8% | 150% |
| OCc1c[nH]c2ccccc12 [Indole-3-carbinol] + Cc1cc(SCc2sc(-c3ccc(C(F)(F)F)c(F)c3)nc2C)ccc1OCC(=O)O [GW0742] (first compound 0.8 µM, partner dose 2 µM) | 151% | 29.2% | 295% | 131% | 179% | 88.4% | 131% | 64.5% | 81.1% | 117% |
| N.N.[Cl][Pt][Cl] [cisplatin] + Oc1cc(-c2nc(-c3ccccc3)[nH]c2-c2ccncc2)ccc1Cl [L779450] (first compound 1.6 µM, partner dose 0.2 µM) | 110% | 99.1% | 179% | 204% | 92.8% | 68.8% | 98.5% | 76.4% | 146% | 56.4% |
| COc1ccc(C2=N[C@@H](c3ccc(Cl)cc3)[C@@H](c3ccc(Cl)cc3)N2C(=O)N2CCNC(=O)C2)c(OC(C)C)c1 [Nutlin-3] + C/C(O)=C(\C#N)C(=O)Nc1cc(Br)ccc1Br [LFM-A13] (first compound 0.1 µM, partner dose 2 µM) | 127% | 75.8% | 137% | 161% | 131% | 92.9% | 46.7% | 87.1% | 134% | 241% |
| N.N.[Cl][Pt][Cl] [cisplatin] + O=C(CCCCCCC(=O)Nc1ccccc1)NO [vorinostat] (first compound 1.6 µM, partner dose 0.08 µM) | 83.8% | 86.3% | 105% | 101% | 74.7% | 49% | 60.5% | 110% | 71.4% | 101% |
| Cn1cc(C2=C(c3cn(C4CCN(Cc5ccccn5)CC4)c4ccccc34)C(=O)NC2=O)c2ccccc21 [Enzastaurin] + CC(C)CCN1c2nc(Nc3cc(F)c(O)c(F)c3)ncc2N(C)C(=O)C1C [BID1870] (first compound 0.8 µM, partner dose 0.2 µM) | 102% | 92% | 144% | 52.4% | 35.7% | 185% | 40.4% | 76% | 137% | 92.8% |
| N.N.[Cl][Pt][Cl] [cisplatin] + OCCn1cc(-c2cnc3nnn(Cc4ccc5ncccc5c4)c3n2)cn1 [PF04217903] (first compound 1.6 µM, partner dose 1 µM) | 121% | 107% | 50.3% | 261% | 173% | 71.3% | 58.7% | 34.5% | 89.1% | 73.3% |
| Cn1cc(C2=C(c3cn(C4CCN(Cc5ccccn5)CC4)c4ccccc34)C(=O)NC2=O)c2ccccc21 [Enzastaurin] + Cc1ccc(NC(=O)c2cccc(N(C)C)c2)cc1NC(=O)c1ccc(O)cc1 [ZM336372] (first compound 0.8 µM, partner dose 2 µM) | 69.7% | 108% | 49.3% | 101% | 61.1% | 86.4% | 144% | 221% | 69.3% | 255% |
| CCN(CC)CCNC(=O)c1c(C)[nH]c(/C=C2\C(=O)Nc3ccc(F)cc32)c1C [sunitinib] + Cc1cc(SCc2sc(-c3ccc(C(F)(F)F)c(F)c3)nc2C)ccc1OCC(=O)O [GW0742] (first compound 0.4 µM, partner dose 2 µM) | 187% | 106% | 59.1% | 100% | 110% | 25.6% | 67.4% | 63.4% | 44.9% | 64.2% |
| CC(=O)O[C@@]12CO[C@@H]1C[C@H](O)[C@@]1(C)C(=O)[C@H](O)C3=C(C)[C@@H](OC(=O)[C@H](O)[C@@H](NC(=O)OC(C)(C)C)c4ccccc4)C[C@@](O)([C@@H](OC(=O)c4ccccc4)[C@H]21)C3(C)C [Docetaxel] + C/C(O)=C(\C#N)C(=O)Nc1cc(Br)ccc1Br [LFM-A13] (first compound 0.0001 µM, partner dose 2 µM) | 370% | 653% | 181% | 48.6% | 720% | 857% | 278% | 101% | 1020% | 912% |
| O=C(O)[C@@H]1[O][Sb](=[O])([O][Sb]2(=[O])[O][C@H]([C@H](O)CO)[C@H](O)[C@H](C(=O)O)[O]2)[O][C@H]([C@H](O)CO)[C@@H]1O (stereo not given in full) [stibogluconate] + O=C(Oc1ccc([N+](=O)[O-])cc1)N1CCC(C(O)(c2ccc3c(c2)OCO3)c2ccc3c(c2)OCO3)CC1 [JZL184] (first compound 2 µM, partner dose 1 µM) | 25.8% | 41.1% | 56.1% | 98.2% | 143% | 108% | 38.1% | 80.3% | 171% | 282% |
| CCCS(=O)(=O)Nc1ccc(F)c(C(=O)c2c[nH]c3ncc(Cl)cc23)c1F + Cc1cc(SCc2sc(-c3ccc(C(F)(F)F)c(F)c3)nc2C)ccc1OCC(=O)O [GW0742] (first compound 0.08 µM, partner dose 2 µM) | 88% | 80.5% | 196% | 58.4% | 203% | 87.1% | 32.3% | 64.9% | 187% | 267% |
| Cn1cc(C2=C(c3cn(C4CCN(Cc5ccccn5)CC4)c4ccccc34)C(=O)NC2=O)c2ccccc21 [Enzastaurin] + Oc1nc(-c2ccc(C(F)(F)F)cc2)nc2c1CSCC2 [XAV939] (first compound 0.8 µM, partner dose 2 µM) | 179% | 62.4% | 151% | 62.2% | 155% | 129% | 295% | 86.4% | 90.6% | 87.8% |
| Cn1cc(C2=C(c3cn(C4CCN(Cc5ccccn5)CC4)c4ccccc34)C(=O)NC2=O)c2ccccc21 [Enzastaurin] + O=C(O)c1ccc(-c2c[nH]c3ncc(-c4ccccc4)cc23)cc1C1CCCC1 [GSK650394] (first compound 0.8 µM, partner dose 0.16 µM) | 88.7% | 87.6% | 231% | 273% | 612% | 79% | 18.1% | 97.3% | 113% | 268% |
| N.N.[Cl][Pt][Cl] [cisplatin] + C[C@@H]1CCN(C(=O)CC#N)C[C@@H]1N(C)c1ncnc2[nH]ccc12 [CP690550] (first compound 1.6 µM, partner dose 1 µM) | 234% | 110% | 176% | 24.4% | 84.3% | 57.9% | 63.4% | 106% | 191% | 78.8% |
| CCCS(=O)(=O)Nc1ccc(F)c(C(=O)c2c[nH]c3ncc(Cl)cc23)c1F + C/C(O)=C(\C#N)C(=O)Nc1cc(Br)ccc1Br [LFM-A13] (first compound 0.08 µM, partner dose 2 µM) | 70% | 38.5% | 44.4% | 169% | 229% | 79.6% | 62.8% | 144% | 52.5% | 191% |
| Nc1nc(F)nc2c1ncn2[C@@H]1O[C@H](CO)[C@@H](O)[C@@H]1O [fludarabine] + C/C(O)=C(\C#N)C(=O)Nc1cc(Br)ccc1Br [LFM-A13] (first compound 0.2 µM, partner dose 2 µM) | 84% | 664% | 154% | 53.6% | 71.9% | 1280% | 1020% | 122% | 41.9% | 47% |
| Cc1ccc(Nc2nccc(N(C)c3ccc4c(C)n(C)nc4c3)n2)cc1S(N)(=O)=O [Pazopanib] + Cc1cc(SCc2sc(-c3ccc(C(F)(F)F)c(F)c3)nc2C)ccc1OCC(=O)O [GW0742] (first compound 0.4 µM, partner dose 2 µM) | 109% | 63.2% | 39% | 64.2% | 54.8% | 48.1% | 56.4% | 97.8% | 101% | 65% |
| Cn1cc(C2=C(c3cn(C4CCN(Cc5ccccn5)CC4)c4ccccc34)C(=O)NC2=O)c2ccccc21 [Enzastaurin] + COc1ccc(-c2ccc3c(N4CCOCC4)nc(N4C[C@@H](C)O[C@@H](C)C4)nc3n2)cc1CO [KU0063794] (first compound 0.8 µM, partner dose 0.02 µM) | 70.7% | 84.4% | 169% | 140% | 88.3% | 145% | 42.5% | 74.4% | 34.2% | 201% |
| N.N.[Cl][Pt][Cl] [cisplatin] + CO[C@@H]1[C@H](N(C)C(=O)c2ccccc2)C[C@H]2O[C@]1(C)n1c3ccccc3c3c4c(c5c6ccccc6n2c5c31)C(=O)NC4 [Midostaurin] (first compound 1.6 µM, partner dose 0.08 µM) | 83.5% | 208% | 101% | 86.6% | 91.7% | 236% | 58.6% | 226% | 87.2% | 180% |
| Cc1cc(Nc2cc(N3CCN(C)CC3)nc(Sc3ccc(NC(=O)C4CC4)cc3)n2)n[nH]1 [Tozasertib] + O=C(Oc1ccc([N+](=O)[O-])cc1)N1CCC(C(O)(c2ccc3c(c2)OCO3)c2ccc3c(c2)OCO3)CC1 [JZL184] (first compound 0.006 µM, partner dose 1 µM) | 151% | 116% | 60.8% | 65.7% | 153% | 121% | 446% | 78.8% | 73.1% | 88.9% |

Rewritten as tab-separated lines: entries from further up
Compound	cleaved PARP positive nuclei fraction (MZ2-MEL)	cleaved PARP positive nuclei fraction (MeWo)	cleaved PARP positive nuclei fraction (RPMI7951)	cleaved PARP positive nuclei fraction (RVH-421)	cleaved PARP positive nuclei fraction (SkMel28)	cleaved PARP positive nuclei fraction (SkMel2)	cleaved PARP positive nuclei fraction (SkMel30)	cleaved PARP positive nuclei fraction (SkMel5)	cleaved PARP positive nuclei fraction (UACC257)	cleaved PARP positive nuclei fraction (UACC62)
N.N.[Cl][Pt][Cl] [cisplatin] + O=C(CCCCCCC(=O)Nc1ccccc1)NO [vorinostat] (first compound 1.6 µM, partner dose 0.08 µM)	83.8%	86.3%	105%	101%	74.7%	49%	60.5%	110%	71.4%	101%
Cn1cc(C2=C(c3cn(C4CCN(Cc5ccccn5)CC4)c4ccccc34)C(=O)NC2=O)c2ccccc21 [Enzastaurin] + COc1ccc(-c2ccc3c(N4CCOCC4)nc(N4C[C@@H](C)O[C@@H](C)C4)nc3n2)cc1CO [KU0063794] (first compound 0.8 µM, partner dose 0.02 µM)	70.7%	84.4%	169%	140%	88.3%	145%	42.5%	74.4%	34.2%	201%
